# Hit rate of the full screen: of about 210,000 compounds, about 5,900 (2.8%) were called active. Not shown: some 5% with an inconclusive outcome. Calls come from the whole dose curve; as a rule, active = well fitted activation curve with a large enough effect; inconclusive = small, poorly fitted or top-dose-only effect; inactive = no such curve, though single readings can be large or run the other way. Only a part is listed here, and it is no random draw. The source gives no active or inactive call for entries shown without one.
# Assay: qHTS Assay for Enhancers of SMN2 Splice Variant Expression; note: nearly all actives have a fitted effect of over 55% in size; for activity change, positive = activation: % of control where 0% means no effect
# Conditions: HEK293 SMN2-luciferase splicing reporter, luminescence, 30-36 h; activity change, positive = activation: at 46.1 µM (top of the series) unless noted
# In short: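 HEK293 cells carry an SMN2 minigene-luciferase reporter in which exon 7 inclusion puts luciferase in frame. Cells were seeded at 2000 cells/well, attached for 10-12 hours, then exposed to compounds for 30-36 hours at 37C before ONE-Glo luminescence.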
# Potency is the fitted concentration of half-maximal effect.
Structure (SMILES),"activity change, positive = activation",Potency
CC(=O)NC1=C(NC2CCS(=O)(=O)C2)C(=O)c2ccccc2C1=O (stereo unspecified),-35.3%,
CNc1oc(C)nc1S(=O)(=O)c1ccccc1,24.6%,
CN(C)CCN(C)Cc1ccccc1Sc1cccc2ccccc12,inactive: -24.2%,
N#C/C(=C\c1ccco1)Sc1nc2ccccc2s1,52.5%,
Cc1cc(NC(=O)c2ccc3c(c2)OCCO3)ccc1NC(=O)c1ccco1,,active: 11.2 µM
CCCn1nnc(NC(=O)c2ccc3ccccc3c2)n1,31.2%,
CC(N=Cc1cccc(O)c1O)c1ccccc1 (stereo unspecified),72.6%,
COc1ccc(/C=N/Nc2ccc(C(=O)O)cc2)cc1Br,inactive: -79.7%,
Cc1ccccc1NC(=O)c1cc(C(=O)c2cc(Cl)ccc2O)cn(-c2ccccc2C)c1=O,inactive: -56.9%,
O=C(Nc1nc(-c2ccc(Oc3ccccc3)cc2)cs1)C1=COCCO1,inactive: -61%,
CS(=O)(=O)Nc1ccccc1C(=O)c1ccccc1,45.3%,
Cn1c2ccccc2c(=O)c2c(=O)n(Cc3ccco3)c(COc3ccccc3)nc21,,active: 35.5 µM
COC(=O)c1sccc1NC(=O)Cc1ccc(OC)c(OC)c1,-56.5%,
CCc1nn(CC(=O)N2CCN(c3cccc(C)c3)C(C)C2)c(=O)c2cc3sccc3n12 (stereo unspecified),33.1%,
COC(=O)COc1nc(C)c(Br)c(OC)n1,50.9%,
COc1cccc(NC(=O)CSc2cc(C)c3ccccc3n2)c1,inactive: -13.5%,
CS(=O)(=O)c1ccc2nc(NC(=O)c3cccs3)sc2c1,,active: 2.24 µM
NC(=O)C1CCN(C2CC(=O)N(c3cccc(F)c3)C2=O)CC1 (stereo unspecified),31.6%,
CCOC(=O)c1ccc(N2C(=O)CC(SCC(=O)Nc3ccc(S(N)(=O)=O)cc3)C2=O)cc1 (stereo unspecified),inactive: 13.3%,
CCOC(=O)c1ccc(N2C(=O)C(O)=C(C(C)=O)C2c2ccc(O)c(OC)c2)cc1 (stereo unspecified),33.3%,
O=C(CSc1nnc(Cn2nnc3ccccc32)o1)N(Cc1ccc(F)cc1)c1ccccc1,-76.3%,
C=CCn1c(Cc2nc3ccc(Cl)cc3[nH]2)n[nH]c1=S,53.4%,

Structure (SMILES),"activity change, positive = activation",Potency
Cc1c(NC(=S)NC(=O)c2sc3ccccc3c2Cl)cccc1C(=O)O,,active: 3.98 µM
Cc1cc(C(=O)CSc2nc(N)cc(=O)[nH]2)c(C)n1-c1ccc(OC(F)F)cc1,inactive: -75.7%,
CN(C(=O)c1ccncc1)c1nnc(-c2cccnc2)s1,37.3%,
Cc1ccc2[nH]c(-c3cccc(N)c3)cc2c1,,active: 14.1 µM
COc1ccc(-c2nc3ccccc3c(=O)n2CCN2CCOCC2)cc1,36.1%,
Cc1ccccc1OCCNC(=O)c1ccc2ccccc2n1,,active: 22.4 µM
Cc1ccc(NC(=O)CSc2nnc(COc3ccc(C#N)cc3)n2-c2ccccc2)cc1C,inactive: -39.6%,
O=C(NCCC1=CCCCC1)C1CCC(CNS(=O)(=O)c2ccccc2)CC1 (stereo unspecified),inactive: -32.5%,
O=C1c2[nH]nc(-c3ccccc3O)c2C(c2ccccc2F)N1Cc1ccco1 (stereo unspecified),33.9%,
CSc1ccccc1C(=O)NCC1CCCO1 (stereo unspecified),34.1%,
c1ccc(CN2CCN(c3ncnc4c3[nH]c3ccccc34)CC2)cc1,inactive: -36.7%,
CCCCN(C(=O)c1cccc2c(=O)c(C)c(-c3ccccc3)oc12)c1ccccc1,inactive: -60.8%,
COC(=O)c1ccccc1NC(=O)C(C)NS(=O)(=O)c1ccc(OC)cc1 (stereo unspecified),38.5%,
CCn1cc(C(=O)N2CCN(c3ccc(OC)cc3)CC2)c(=O)c2cc(S(=O)(=O)N3CCCCC3)ccc21,31.9%,
Cc1cc[n+](CC(=O)N2CCCc3ccccc32)cc1,5.27%,
CCCCCCN(CCCCCC)C(=O)Cc1c(-c2ccc(F)cc2)[nH]c2ccccc12,,inactive
O=[N+]([O-])c1ccc(/C=C/c2ccc3cccc([N+](=O)[O-])c3n2)cc1,inactive: -41.1%,
O=c1nc2sc3ccccc3n2c(=O)n1-c1cccc(Cl)c1,92.3%,
Cc1cc(C(=O)NCc2ccco2)no1,34.5%,
COc1cc(NC(=O)c2ccccc2)c(OC)cc1NC(C)=O,52.8%,
c1ccc(-c2nc3ccccc3[nH]2)nc1,,active: 3.16 µM
COc1cccc(C2CC3(CC(C)(C)NC(=S)N3)Oc3cc(O)ccc32)c1 (stereo unspecified),inactive: -36%,

Structure (SMILES),"activity change, positive = activation",Potency
CCOC(=O)N1CCN(Cc2nc(N)nc(Nc3ccc(C)cc3)n2)CC1,42.4%,
COc1ccc(Nc2nc(-c3ccccc3)cs2)cc1,,active: 10 µM
N/C(=N\OC(=O)c1ccc(Cl)cc1)c1ccccn1,,active: 7.08 µM
S=C(Nc1cccc(Br)c1)c1ccccc1,-44.3%,
O=c1oc2ccccc2c2c1ncn2-c1ccccc1,43.2%,
Cc1ccccc1N/C(SCc1ccc(Cl)cc1)=C(/C#N)C(N)=O,-4.62%,
CCCCNc1c2c3c(cccc3n(C)c1=O)C(=O)c1ccccc1-2,inactive: -50.5%,
COc1cc(CNC(C)c2ccccc2)c(Br)cc1OCC(N)=O (stereo unspecified),-40.2%,
c1cc(-c2noc(CC3CCCCC3)n2)ccn1,31.4%,
CCc1ccc(-n2nc(CO)c(C(=O)NCc3cccnc3)n2)cc1,inactive: -44.9%,
Cc1ccc2c(CNCc3ccco3)cc(=O)oc2c1,,active: 12.6 µM
NC(=O)c1ccccc1NC(=O)/C=C/c1c(Cl)cccc1Cl,inactive: 45.7%,
COc1ccccc1N(C)S(=O)(=O)c1ccc(C(=O)Nc2ccc(N3CCOCC3)cc2)cc1,inactive: -45.8%,
CCCC(=O)NNc1cc(=O)c2c(=O)n(C)c(=O)n(C)c2[nH]1,-31.1%,
Cc1ccc2nc3sc(C(=O)NCc4ccco4)c(N)c3cc2c1,,active: 4.47 µM
CCOC(=O)c1cnn2c(C(F)(F)F)cc(-c3cn(C)nc3C)nc12,34.6%,
CC(C)CCOc1ccc(C(=O)O)cc1,32%,
CCCNC(=O)C(=O)Nc1ccc(N(C)C)cc1,,active: 11.2 µM
COC(=O)[C@@]1(Cc2ccc(F)cc2)[C@H]2c3cc(C(=O)N(C)C)n(Cc4ccccc4)c3C[C@H]2CN1C(=O)c1ccccc1,,inactive
Cc1ccc(-c2nc(C3CCN(S(=O)(=O)c4ccc(C(F)(F)F)cc4)CC3)no2)cc1,78.3%,
O=C(CCS(=O)(=O)c1ccc(Br)cc1)NCc1cccs1,37.3%,
Oc1oc(-c2ccco2)nc1C=Nc1ccccc1,32.1%,

Structure (SMILES),"activity change, positive = activation",Potency
CC(=O)c1cnc2cc(-c3ccc(Cl)cc3)nn2c1C,101%,
Cc1c(CCO)c(=O)[nH]n1S(=O)(=O)c1ccccc1,33.6%,
O=C(COC(=O)/C=C/c1cccs1)Nc1ccc2ccccc2c1,-27.9%,
CCOc1ccc(N/C(SCc2cccc([N+](=O)[O-])c2)=C(/C#N)C(N)=O)cc1,-7.14%,
CN(CCNC(=O)C1CC(=O)N(c2ccc(F)c(Cl)c2)C1)Cc1ccccc1 (stereo unspecified),32.8%,
Cn1c(=O)oc2cc(S(=O)(=O)Nc3ccccc3O)ccc21,28.1%,
Cc1cc(NC(=O)c2ccc(F)cc2F)n(-c2nc3ccccc3[nH]2)n1,inactive: -28.5%,
Oc1ccc(-c2csc(Nc3cccnc3)n2)cc1,19.9%,
COc1ccc(CCNC(=O)c2ccc(-c3ccc([N+](=O)[O-])cc3)o2)cc1OC,-78.7%,
Cc1ccc(Nc2nc3ccccc3s2)c(C)c1,,active: 2.51 µM
COc1cc(C)ccc1OCCOc1cc(C)ccc1Cl,-43%,
O=C(Nc1ccc2c(c1)OCCO2)NC12CC3CC(CC(C3)C1)C2,,active: 22.4 µM
CCCCN(C)C(=O)CCC(=O)Nc1ccc2nc(N3CCOCC3)cc(C)c2c1,,active: 20 µM
Cc1ccc(O)c(-c2cc(-c3ccccc3F)[nH]n2)c1,,active: 11.2 µM
CCc1ccc(-n2c(SCc3c(C)noc3C)nnc2-c2ccncc2)cc1,27.1%,
COc1cccc(C(=O)Cn2c(Br)nc3c2c(=O)n(C)c(=O)n3C)c1,inactive: -35.9%,
COC(=O)c1ccc(NC(=O)CCN2CCN(CCC(=O)Nc3ccc(C(=O)OC)cc3)CC2)cc1,-82.1%,
CCN1CCN(C(=O)c2ccc(CN(c3ccccc3)S(=O)(=O)c3ccccc3)cc2)CC1,-36.2%,
O=C(Nc1nc2ccccc2c2nc3ccccc3n12)c1ccc(F)cc1,inactive: -21.6%,
O=C(CSc1nc2cc(C(F)(F)F)ccc2n1Cc1ccccc1)NC1CCS(=O)(=O)C1 (stereo unspecified),-32.8%,
CC(OCc1ccccc1)C(NC(=O)OC(C)(C)C)C(=O)NCC1CCCO1 (stereo unspecified),33%,
CC(C)(C)NC(=O)CN(C(=O)CNS(=O)(=O)c1ccccc1)c1ccc2c(c1)OCCO2,32.5%,

Structure (SMILES),"activity change, positive = activation",Potency
Cc1ccc(/C(N)=N/OC(=O)c2ccc3c(c2)OCO3)cc1,,active: 12.6 µM
CCOC(=O)N/N=C/c1c(C)nn(-c2cccc(C(F)(F)F)c2)c1Cl,inactive: -66.2%,
O=C(c1ccc(F)cc1)N1CCC(N2CCCCCC2)CC1,35.6%,
Cc1ccc(S(=O)(=O)c2c(O)cc(C)c(NS(=O)(=O)c3ccc(Br)cc3)c2C)cc1,inactive: -37.6%,
CC(Sc1nc(N)cc(=O)[nH]1)C(=O)Nc1sc2c(c1C#N)CCCC2 (stereo unspecified),inactive: -61.2%,
O=C(NC(=S)Nc1ccccn1)c1ccc([N+](=O)[O-])cc1,,active: 2.82 µM
O=C(c1ccc2c(c1)N(Cc1ccccc1)C(=O)c1ccccc1S2)N1CCCC1,-52.5%,
CCOC(=O)c1snc(C(=O)NC2CCCCC2)c1N,158%,
O=C1CC(O)(C(F)(F)F)Oc2c1ccc1ccccc21 (stereo unspecified),39.6%,
CCN(CC)c1ccc(/C=c2\sc3nc4ccccc4n3c2=O)c(O)c1,inactive: -46%,
COCn1c(COc2ccc3ccccc3c2)nc2ccccc21,,active: 11.2 µM
Nc1nc(CSC(=S)N2CCN(c3ccccc3)CC2)nc(Nc2ccc(F)cc2)n1,-36.5%,
Cc1onc(-c2ccccc2)c1-c1n[nH]c(=S)n1-c1ccc(C(=O)O)cc1,30.6%,
Cc1cccc(N2CCN(C(=O)C3CCN(C(=O)c4cc5sccc5n4C)CC3)CC2C)c1 (stereo unspecified),inactive: -46.7%,
Cc1nn2c(c1-c1ccccc1)NC1=C(C(=O)CCC1)C2c1ccccc1 (stereo unspecified),17.7%,
O=C(/C=C/c1ccccc1[N+](=O)[O-])Nc1cccnc1,,active: 14.1 µM
Oc1ccc(Br)cc1C=Nc1cccn2cc(-c3ccccc3)nc12,164%,
Cn1c(=O)c2c(nc(N/N=C/c3cccs3)n2Cc2ccccc2)n(C)c1=O,inactive: -55.1%,

# 6 of the compounds above, tab-delimited.
Structure (SMILES)	activity change, positive = activation	Potency
CCOC(=O)N/N=C/c1c(C)nn(-c2cccc(C(F)(F)F)c2)c1Cl	inactive: -66.2%	
O=C(c1ccc(F)cc1)N1CCC(N2CCCCCC2)CC1	35.6%	
Cc1ccc(S(=O)(=O)c2c(O)cc(C)c(NS(=O)(=O)c3ccc(Br)cc3)c2C)cc1	inactive: -37.6%	
O=C(NC(=S)Nc1ccccn1)c1ccc([N+](=O)[O-])cc1		active: 2.82 µM
CCOC(=O)c1snc(C(=O)NC2CCCCC2)c1N	158%	
Cc1cccc(N2CCN(C(=O)C3CCN(C(=O)c4cc5sccc5n4C)CC3)CC2C)c1 (stereo unspecified)	inactive: -46.7%	
